Data from the supplement of paper PMC6411743.
± gives the standard deviation of the averaged measurements. Only a part is listed here, and it is no random draw.

Amino acid sequences for entries named in this document (tags omitted). A change or cut given only in a name is not applied to a line headed by its entry.
UniProt Q14152, whole entry: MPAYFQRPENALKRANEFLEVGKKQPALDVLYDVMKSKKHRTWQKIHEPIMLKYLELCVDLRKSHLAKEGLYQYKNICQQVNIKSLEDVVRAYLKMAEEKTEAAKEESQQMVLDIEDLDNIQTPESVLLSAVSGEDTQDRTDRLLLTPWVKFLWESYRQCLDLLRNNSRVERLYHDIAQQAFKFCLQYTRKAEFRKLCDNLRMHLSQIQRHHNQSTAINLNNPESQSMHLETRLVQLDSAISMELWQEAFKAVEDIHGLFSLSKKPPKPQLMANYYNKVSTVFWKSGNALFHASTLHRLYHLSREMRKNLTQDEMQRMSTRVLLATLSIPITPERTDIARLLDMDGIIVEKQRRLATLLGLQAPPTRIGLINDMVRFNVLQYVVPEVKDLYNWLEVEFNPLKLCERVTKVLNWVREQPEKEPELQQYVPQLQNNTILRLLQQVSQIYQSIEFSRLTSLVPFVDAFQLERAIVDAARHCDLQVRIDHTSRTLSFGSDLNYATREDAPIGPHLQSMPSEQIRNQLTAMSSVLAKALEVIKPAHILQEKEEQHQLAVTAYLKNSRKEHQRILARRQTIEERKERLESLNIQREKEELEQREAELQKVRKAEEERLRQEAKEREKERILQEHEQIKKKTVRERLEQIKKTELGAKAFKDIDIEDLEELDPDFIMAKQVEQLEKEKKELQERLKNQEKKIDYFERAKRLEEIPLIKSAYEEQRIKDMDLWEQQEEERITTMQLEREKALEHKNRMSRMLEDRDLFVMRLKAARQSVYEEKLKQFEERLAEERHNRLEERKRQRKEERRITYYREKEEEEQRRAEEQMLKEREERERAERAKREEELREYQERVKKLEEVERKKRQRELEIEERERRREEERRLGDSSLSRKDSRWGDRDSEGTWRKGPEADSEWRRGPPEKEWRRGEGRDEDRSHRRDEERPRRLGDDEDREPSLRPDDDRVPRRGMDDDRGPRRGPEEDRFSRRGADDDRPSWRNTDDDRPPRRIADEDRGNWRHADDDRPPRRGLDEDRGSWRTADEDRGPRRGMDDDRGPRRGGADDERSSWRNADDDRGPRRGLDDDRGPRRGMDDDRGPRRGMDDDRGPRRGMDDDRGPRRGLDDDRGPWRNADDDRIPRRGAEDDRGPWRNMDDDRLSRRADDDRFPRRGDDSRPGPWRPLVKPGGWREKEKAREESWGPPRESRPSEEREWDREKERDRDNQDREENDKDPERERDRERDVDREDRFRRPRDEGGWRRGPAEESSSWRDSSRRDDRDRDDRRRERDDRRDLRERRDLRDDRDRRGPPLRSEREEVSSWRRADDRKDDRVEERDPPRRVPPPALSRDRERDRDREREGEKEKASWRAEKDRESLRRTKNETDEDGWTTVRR
UniProt Q13795: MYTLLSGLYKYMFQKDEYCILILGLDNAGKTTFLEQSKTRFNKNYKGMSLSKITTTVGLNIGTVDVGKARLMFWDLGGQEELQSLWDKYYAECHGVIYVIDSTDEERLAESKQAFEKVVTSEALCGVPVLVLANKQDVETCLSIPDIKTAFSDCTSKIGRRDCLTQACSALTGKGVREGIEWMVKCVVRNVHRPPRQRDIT
UniProt Q13601: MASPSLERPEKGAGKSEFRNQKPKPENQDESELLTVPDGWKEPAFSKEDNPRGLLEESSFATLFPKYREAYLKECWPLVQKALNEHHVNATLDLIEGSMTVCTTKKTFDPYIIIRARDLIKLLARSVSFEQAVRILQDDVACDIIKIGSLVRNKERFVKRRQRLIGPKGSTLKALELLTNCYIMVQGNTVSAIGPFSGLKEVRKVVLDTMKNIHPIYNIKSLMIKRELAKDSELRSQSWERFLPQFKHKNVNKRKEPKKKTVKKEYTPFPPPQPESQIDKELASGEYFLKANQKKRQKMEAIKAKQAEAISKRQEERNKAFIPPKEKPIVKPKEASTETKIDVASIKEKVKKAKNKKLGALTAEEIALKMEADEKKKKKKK
UniProt Q14145, whole entry: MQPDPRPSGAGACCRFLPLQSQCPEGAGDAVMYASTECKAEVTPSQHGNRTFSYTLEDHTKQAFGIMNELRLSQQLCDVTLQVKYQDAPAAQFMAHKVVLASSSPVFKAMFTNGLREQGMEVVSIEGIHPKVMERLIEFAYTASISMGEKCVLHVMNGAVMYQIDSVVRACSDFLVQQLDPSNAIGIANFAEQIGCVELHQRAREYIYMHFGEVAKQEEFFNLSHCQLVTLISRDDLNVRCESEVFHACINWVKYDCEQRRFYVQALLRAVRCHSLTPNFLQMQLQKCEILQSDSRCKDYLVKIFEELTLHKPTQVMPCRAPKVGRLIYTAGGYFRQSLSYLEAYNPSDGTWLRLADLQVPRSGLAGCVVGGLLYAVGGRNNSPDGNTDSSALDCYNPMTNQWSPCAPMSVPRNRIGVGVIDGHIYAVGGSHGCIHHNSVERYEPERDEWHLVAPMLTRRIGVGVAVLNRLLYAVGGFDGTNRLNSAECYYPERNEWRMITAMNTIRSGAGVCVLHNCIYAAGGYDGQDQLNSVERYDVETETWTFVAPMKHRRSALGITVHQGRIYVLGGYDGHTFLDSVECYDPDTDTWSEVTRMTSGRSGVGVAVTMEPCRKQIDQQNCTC
UniProt Q15021, whole entry: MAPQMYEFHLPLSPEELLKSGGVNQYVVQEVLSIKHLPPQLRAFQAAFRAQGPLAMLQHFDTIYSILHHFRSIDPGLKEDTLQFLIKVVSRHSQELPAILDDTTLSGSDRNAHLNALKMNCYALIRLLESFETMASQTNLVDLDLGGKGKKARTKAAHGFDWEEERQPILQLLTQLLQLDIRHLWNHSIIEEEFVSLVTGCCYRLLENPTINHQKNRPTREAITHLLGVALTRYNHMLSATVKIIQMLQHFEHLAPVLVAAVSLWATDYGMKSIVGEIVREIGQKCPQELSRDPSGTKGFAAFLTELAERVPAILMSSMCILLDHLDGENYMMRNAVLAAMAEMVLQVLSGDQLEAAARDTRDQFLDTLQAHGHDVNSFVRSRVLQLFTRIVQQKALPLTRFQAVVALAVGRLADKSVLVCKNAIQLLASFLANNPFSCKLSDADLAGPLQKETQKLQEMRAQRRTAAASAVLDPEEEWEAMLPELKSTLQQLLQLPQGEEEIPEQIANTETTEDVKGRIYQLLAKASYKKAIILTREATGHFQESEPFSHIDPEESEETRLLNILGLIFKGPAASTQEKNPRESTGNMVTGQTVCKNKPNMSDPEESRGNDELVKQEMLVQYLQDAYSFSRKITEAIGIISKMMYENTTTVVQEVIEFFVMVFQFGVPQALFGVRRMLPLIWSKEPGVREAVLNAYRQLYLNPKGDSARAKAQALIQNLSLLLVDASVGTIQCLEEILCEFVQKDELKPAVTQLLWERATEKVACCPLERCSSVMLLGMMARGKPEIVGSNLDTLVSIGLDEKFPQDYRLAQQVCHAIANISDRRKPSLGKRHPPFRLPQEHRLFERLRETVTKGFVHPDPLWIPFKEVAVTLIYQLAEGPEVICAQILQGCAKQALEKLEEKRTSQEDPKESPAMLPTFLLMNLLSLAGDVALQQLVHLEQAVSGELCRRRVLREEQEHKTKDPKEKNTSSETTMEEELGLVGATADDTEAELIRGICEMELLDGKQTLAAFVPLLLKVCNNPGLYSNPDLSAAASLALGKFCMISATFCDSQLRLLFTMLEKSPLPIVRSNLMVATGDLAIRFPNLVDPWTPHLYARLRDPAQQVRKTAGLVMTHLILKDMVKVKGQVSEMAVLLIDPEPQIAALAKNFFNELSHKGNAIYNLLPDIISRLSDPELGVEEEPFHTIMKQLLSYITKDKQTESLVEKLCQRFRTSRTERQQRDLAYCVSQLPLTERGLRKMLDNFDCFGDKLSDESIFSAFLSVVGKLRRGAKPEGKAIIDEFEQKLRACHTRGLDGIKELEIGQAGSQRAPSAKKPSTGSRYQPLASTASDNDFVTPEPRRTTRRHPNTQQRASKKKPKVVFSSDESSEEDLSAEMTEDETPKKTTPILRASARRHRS
UniProt Q08945, whole entry: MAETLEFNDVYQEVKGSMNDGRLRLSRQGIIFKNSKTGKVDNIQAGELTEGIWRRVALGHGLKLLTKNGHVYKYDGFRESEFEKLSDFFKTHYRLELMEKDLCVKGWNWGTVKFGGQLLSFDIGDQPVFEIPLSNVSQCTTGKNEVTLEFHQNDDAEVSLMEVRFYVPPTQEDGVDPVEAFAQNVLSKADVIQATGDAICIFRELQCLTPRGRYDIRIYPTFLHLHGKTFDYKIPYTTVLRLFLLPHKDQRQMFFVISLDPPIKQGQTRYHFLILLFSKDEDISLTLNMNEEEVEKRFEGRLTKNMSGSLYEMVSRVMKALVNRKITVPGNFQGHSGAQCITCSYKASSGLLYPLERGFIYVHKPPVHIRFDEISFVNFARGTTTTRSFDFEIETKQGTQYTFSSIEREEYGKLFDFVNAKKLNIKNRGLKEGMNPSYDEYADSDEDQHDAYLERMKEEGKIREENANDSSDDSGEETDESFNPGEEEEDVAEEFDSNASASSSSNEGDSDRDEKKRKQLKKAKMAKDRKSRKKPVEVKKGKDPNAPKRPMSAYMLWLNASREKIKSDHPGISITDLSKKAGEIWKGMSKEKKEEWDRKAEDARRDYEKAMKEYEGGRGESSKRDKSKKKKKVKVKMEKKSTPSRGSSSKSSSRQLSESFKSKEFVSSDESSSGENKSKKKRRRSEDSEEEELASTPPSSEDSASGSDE
UniProt Q13888: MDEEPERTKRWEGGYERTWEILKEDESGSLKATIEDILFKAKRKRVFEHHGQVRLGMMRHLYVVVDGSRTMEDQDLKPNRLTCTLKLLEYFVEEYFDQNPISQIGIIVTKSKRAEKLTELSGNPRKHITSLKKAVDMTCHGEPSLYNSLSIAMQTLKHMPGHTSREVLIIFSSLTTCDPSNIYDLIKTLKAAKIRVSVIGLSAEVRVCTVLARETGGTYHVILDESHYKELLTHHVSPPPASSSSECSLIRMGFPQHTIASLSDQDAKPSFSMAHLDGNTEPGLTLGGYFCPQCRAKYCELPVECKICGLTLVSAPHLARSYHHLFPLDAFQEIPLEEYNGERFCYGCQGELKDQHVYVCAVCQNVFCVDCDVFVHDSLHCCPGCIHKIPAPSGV
UniProt Q15061: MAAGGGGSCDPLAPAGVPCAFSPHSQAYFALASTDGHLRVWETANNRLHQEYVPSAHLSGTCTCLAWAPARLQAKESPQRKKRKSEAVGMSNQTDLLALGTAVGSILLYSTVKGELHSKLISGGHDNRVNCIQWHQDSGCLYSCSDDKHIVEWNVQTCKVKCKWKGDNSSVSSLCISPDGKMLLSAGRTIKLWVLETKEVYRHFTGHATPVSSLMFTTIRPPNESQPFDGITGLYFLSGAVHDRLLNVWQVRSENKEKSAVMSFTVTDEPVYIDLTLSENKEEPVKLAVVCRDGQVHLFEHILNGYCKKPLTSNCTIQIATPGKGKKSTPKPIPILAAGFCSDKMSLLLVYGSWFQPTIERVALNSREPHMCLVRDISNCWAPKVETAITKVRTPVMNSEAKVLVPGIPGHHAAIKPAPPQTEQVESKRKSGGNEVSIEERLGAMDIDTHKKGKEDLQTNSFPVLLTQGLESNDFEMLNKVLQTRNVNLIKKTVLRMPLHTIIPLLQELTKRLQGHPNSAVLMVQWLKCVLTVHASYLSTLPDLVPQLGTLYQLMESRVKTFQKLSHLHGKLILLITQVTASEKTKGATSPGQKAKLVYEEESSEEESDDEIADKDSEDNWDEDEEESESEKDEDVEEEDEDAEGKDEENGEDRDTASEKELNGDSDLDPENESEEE
UniProt Q14696: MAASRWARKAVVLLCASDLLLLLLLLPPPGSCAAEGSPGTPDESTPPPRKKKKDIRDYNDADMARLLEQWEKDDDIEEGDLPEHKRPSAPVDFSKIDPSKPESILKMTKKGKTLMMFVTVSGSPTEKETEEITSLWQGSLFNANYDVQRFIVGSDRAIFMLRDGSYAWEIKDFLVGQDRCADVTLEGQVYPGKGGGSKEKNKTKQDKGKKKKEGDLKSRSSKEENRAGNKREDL
UniProt Q14240, whole entry: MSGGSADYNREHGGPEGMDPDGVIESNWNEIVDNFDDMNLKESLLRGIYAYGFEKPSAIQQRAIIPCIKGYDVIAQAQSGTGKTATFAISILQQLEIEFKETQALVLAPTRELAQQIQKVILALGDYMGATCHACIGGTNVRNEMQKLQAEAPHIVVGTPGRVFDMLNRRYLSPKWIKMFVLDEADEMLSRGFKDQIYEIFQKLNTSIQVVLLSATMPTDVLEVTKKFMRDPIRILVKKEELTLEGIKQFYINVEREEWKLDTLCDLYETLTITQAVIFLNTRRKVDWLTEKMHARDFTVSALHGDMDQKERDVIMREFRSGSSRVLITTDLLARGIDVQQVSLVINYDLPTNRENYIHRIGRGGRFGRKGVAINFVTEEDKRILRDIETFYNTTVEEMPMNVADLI

Compound: Nc1ncnc2c1ncn2[C@@H]1O[C@H](COP(=O)(O)OP(=O)(O)NP(=O)(O)O)[C@@H](O)[C@H]1O [adenylyl imidodiphosphate]
Test: NP40-soluble protein abundance relative to vehicle (solubility fold change) (ratio); higher = more soluble protein in presence of AMP-PNP
Summary of the method: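 Values are fold changes against the detergent-processed vehicle, based on vsn-normalised intensities. Jurkat crude lysate was treated at eight concentrations from 0.1 to 10 mM (10 min at room temperature, then 3 min at 37 °C), solubilised with 0.8% NP40 and benzonase, ultracentrifuged and analysed by TMT-labelled LC-MS/MS over three independent experiments.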

| Target | NP40-soluble protein abundance (concentration: 1mM) | NP40-soluble protein abundance (concentration: 2mM) | NP40-soluble protein abundance (concentration: 4mM) | NP40-soluble protein abundance (concentration: 6mM) | NP40-soluble protein abundance (concentration: 8mM) | NP40-soluble protein abundance (concentration: 10mM) |
| --- | --- | --- | --- | --- | --- | --- |
| UniProt Q14746 and related entries | 0.962 ± 0.031 | 0.982 ± 0.042 | 0.979 ± 0.024 | 0.925 ± 0.04 | 0.918 ± 0.041 | 0.931 ± 0.059 |
| RBL2 (UniProt Q08999) | 0.983 ± 0.019 | 0.997 ± 0.01 | 0.978 ± 0.025 | 0.974 ± 0.045 | 0.946 ± 0.012 | 0.9615 ± 0.0056 |
| RAB33A (UniProt Q14088) | 1.02 ± 0.021 | 0.976 ± 0.013 | 0.991 ± 0.025 | 0.974 ± 0.033 | 1 ± 0.042 | 0.988 ± 0.054 |
| EIF3A (UniProt Q14152) | 1.05 ± 0.029 | 1.08 ± 0.044 | 1.12 ± 0.087 | 1.19 ± 0.12 | 1.25 ± 0.12 | 1.38 ± 0.19 |
| UniProt Q13795 and related entries | 0.98 ± 0.078 | 0.994 ± 0.028 | 0.974 ± 0.052 | 1.02 ± 0.076 | 0.991 ± 0.072 | 0.992 ± 0.083 |
| UniProt Q13242 | 1 ± 0.056 | 1.16 ± 0.012 | 1.08 ± 0.063 | 1.19 ± 0.068 | 1.16 ± 0.058 | 1.28 ± 0.088 |
| UniProt Q13131 and related entries | 1.03 ± 0.032 | 1 ± 0.038 | 1.051 ± 0.0089 | 1.01 ± 0.027 | 1.05 ± 0.022 | 1.03 ± 0.026 |
| ARHGEF6 (UniProt Q15052) | 0.9922 ± 0.0094 | 0.998 ± 0.013 | 0.984 ± 0.0079 | 0.956 ± 0.025 | 0.94 ± 0.018 | 0.954 ± 0.019 |
| UniProt Q12872 and related entries | 1.04 ± 0.04 | 1.11 ± 0.061 | 1.12 ± 0.043 | 1.17 ± 0.097 | 1.2 ± 0.1 | 1.33 ± 0.1 |
| PDCD11 (UniProt Q14690) | 0.9836 ± 0.0023 | 1.07 ± 0.017 | 1.08 ± 0.12 | 1.08 ± 0.044 | 1.19 ± 0.081 | 1.22 ± 0.12 |
| KRR1 (UniProt Q13601) | 1.05 ± 0.035 | 1.1 ± 0.071 | 1.09 ± 0.011 | 1.08 ± 0.049 | 1.06 ± 0.047 | 1.08 ± 0.024 |
| SCRN1 (UniProt Q12765) | 1 ± 0.02 | 0.985 ± 0.036 | 0.973 ± 0.035 | 0.9537 ± 0.0075 | 0.942 ± 0.012 | 0.951 ± 0.049 |
| UniProt Q14CB8 and related entries | 1 ± 0.039 | 1 ± 0.047 | 1.03 ± 0.043 | 1.03 ± 0.015 | 0.996 ± 0.027 | 0.99 ± 0.044 |
| KEAP1 (UniProt Q14145) | 1.001 ± 0.0091 | 0.965 ± 0.048 | 0.993 ± 0.014 | 0.989 ± 0.02 | 1 ± 0.017 | 0.95 ± 0.017 |
| MGAT2 (UniProt Q10469) | 1.02 ± 0.028 | 1.01 ± 0.022 | 1 ± 0.02 | 0.996 ± 0.024 | 1 ± 0.028 | 0.984 ± 0.018 |
| UniProt Q14789 and related entries | 1.02 ± 0.019 | 1.06 ± 0.059 | 1.01 ± 0.012 | 0.983 ± 0.034 | 0.9388 ± 0.0075 | 0.97 ± 0.011 |
| NCAPD2 (UniProt Q15021) | 0.973 ± 0.022 | 0.967 ± 0.015 | 0.987 ± 0.028 | 0.996 ± 0.018 | 0.987 ± 0.037 | 0.97 ± 0.044 |

Given with bars between the fields: part of the list above
Target | NP40-soluble protein abundance (concentration: 1mM) | NP40-soluble protein abundance (concentration: 2mM) | NP40-soluble protein abundance (concentration: 4mM) | NP40-soluble protein abundance (concentration: 6mM) | NP40-soluble protein abundance (concentration: 8mM) | NP40-soluble protein abundance (concentration: 10mM)
UniProt Q13131 and related entries | 1.03 ± 0.032 | 1 ± 0.038 | 1.051 ± 0.0089 | 1.01 ± 0.027 | 1.05 ± 0.022 | 1.03 ± 0.026
ARHGEF6 (UniProt Q15052) | 0.9922 ± 0.0094 | 0.998 ± 0.013 | 0.984 ± 0.0079 | 0.956 ± 0.025 | 0.94 ± 0.018 | 0.954 ± 0.019
UniProt Q12872 and related entries | 1.04 ± 0.04 | 1.11 ± 0.061 | 1.12 ± 0.043 | 1.17 ± 0.097 | 1.2 ± 0.1 | 1.33 ± 0.1
PDCD11 (UniProt Q14690) | 0.9836 ± 0.0023 | 1.07 ± 0.017 | 1.08 ± 0.12 | 1.08 ± 0.044 | 1.19 ± 0.081 | 1.22 ± 0.12
KRR1 (UniProt Q13601) | 1.05 ± 0.035 | 1.1 ± 0.071 | 1.09 ± 0.011 | 1.08 ± 0.049 | 1.06 ± 0.047 | 1.08 ± 0.024
SCRN1 (UniProt Q12765) | 1 ± 0.02 | 0.985 ± 0.036 | 0.973 ± 0.035 | 0.9537 ± 0.0075 | 0.942 ± 0.012 | 0.951 ± 0.049
UniProt Q14CB8 and related entries | 1 ± 0.039 | 1 ± 0.047 | 1.03 ± 0.043 | 1.03 ± 0.015 | 0.996 ± 0.027 | 0.99 ± 0.044
KEAP1 (UniProt Q14145) | 1.001 ± 0.0091 | 0.965 ± 0.048 | 0.993 ± 0.014 | 0.989 ± 0.02 | 1 ± 0.017 | 0.95 ± 0.017
MGAT2 (UniProt Q10469) | 1.02 ± 0.028 | 1.01 ± 0.022 | 1 ± 0.02 | 0.996 ± 0.024 | 1 ± 0.028 | 0.984 ± 0.018

The results go on:

| Target | NP40-soluble protein abundance (concentration: 1mM) | NP40-soluble protein abundance (concentration: 2mM) | NP40-soluble protein abundance (concentration: 4mM) | NP40-soluble protein abundance (concentration: 6mM) | NP40-soluble protein abundance (concentration: 8mM) | NP40-soluble protein abundance (concentration: 10mM) |
| --- | --- | --- | --- | --- | --- | --- |
| SSRP1 (UniProt Q08945) | 1.05 ± 0.053 | 1.07 ± 0.03 | 1.13 ± 0.045 | 1.35 ± 0.055 | 1.47 ± 0.058 | 1.73 ± 0.1 |
| RRS1 (UniProt Q15050) | 1.03 ± 0.012 | 0.997 ± 0.037 | 0.99 ± 0.035 | 0.959 ± 0.029 | 0.978 ± 0.022 | 0.972 ± 0.015 |
| UniProt Q13332 and related entries | 0.98 ± 0.01 | 1.03 ± 0.032 | 0.993 ± 0.017 | 0.986 ± 0.029 | 0.978 ± 0.053 | 1 ± 0.031 |
| UniProt Q14643 and related entries | 0.996 ± 0.061 | 0.944 ± 0.11 | 1.01 ± 0.063 | 0.967 ± 0.11 | 0.957 ± 0.11 | 0.949 ± 0.13 |
| Q13888 and related entries (UniProt Q6P1K8+Q13888) | 1.042 ± 0.0075 | 1.02 ± 0.017 | 1.03 ± 0.015 | 1.02 ± 0.026 | 1.05 ± 0.027 | 1 ± 0.041 |
| WDR43 (UniProt Q15061) | 1 ± 0.011 | 1.016 ± 0.0073 | 1.051 ± 0.0072 | 1.05 ± 0.0082 | 1.0448 ± 0.00071 | 1.1 ± 0.031 |
| DSG2 (UniProt Q14126) | 1.01 ± 0.025 | 1.05 ± 0.04 | 1.03 ± 0.012 | 1.01 ± 0.032 | 0.985 ± 0.031 | 0.9825 ± 0.0032 |
| UniProt Q13615 and related entries | 1.04 ± 0.043 | 1.02 ± 0.011 | 1.02 ± 0.045 | 0.989 ± 0.036 | 1 ± 0.022 | 0.982 ± 0.02 |
| PSME4 (UniProt Q14997) | 0.9678 ± 0.0088 | 0.905 ± 0.072 | 0.968 ± 0.045 | 0.884 ± 0.075 | 0.925 ± 0.11 | 0.884 ± 0.11 |
| DNAJC3 (UniProt Q13217) | 0.978 ± 0.031 | 0.9648 ± 0.0063 | 0.973 ± 0.011 | 1.01 ± 0.014 | 0.985 ± 0.021 | 0.999 ± 0.022 |
| PRPF4B (UniProt Q13523) | 1.02 ± 0.02 | 1.01 ± 0.048 | 1.1 ± 0.037 | 1.2 ± 0.032 | 1.26 ± 0.042 | 1.34 ± 0.067 |
| PDCL (UniProt Q13371) | 0.966 ± 0.026 | 0.973 ± 0.039 | 0.969 ± 0.056 | 0.932 ± 0.062 | 0.938 ± 0.083 | 0.928 ± 0.082 |
| UniProt Q14696 | 0.96 ± 0.027 | 1.03 ± 0.037 | 0.973 ± 0.031 | 0.995 ± 0.032 | 0.94 ± 0.02 | 0.982 ± 0.022 |
| G3BP1 (UniProt Q13283) | 1.1 ± 0.028 | 1.15 ± 0.06 | 1.17 ± 0.05 | 1.19 ± 0.087 | 1.2 ± 0.1 | 1.23 ± 0.086 |
| UniProt Q14240 and related entries | 1.07 ± 0.018 | 1 ± 0.028 | 1.09 ± 0.068 | 1.16 ± 0.026 | 1.21 ± 0.047 | 1.18 ± 0.066 |
| UniProt Q15029 and related entries | 1.03 ± 0.048 | 0.974 ± 0.11 | 1.02 ± 0.049 | 1.04 ± 0.071 | 1.07 ± 0.064 | 1.1 ± 0.1 |
